Binding data for 4 molecules are collected here from PMC12706091.

Amino acid sequences for entries named in this document (tags omitted).
UniProt B5DF89: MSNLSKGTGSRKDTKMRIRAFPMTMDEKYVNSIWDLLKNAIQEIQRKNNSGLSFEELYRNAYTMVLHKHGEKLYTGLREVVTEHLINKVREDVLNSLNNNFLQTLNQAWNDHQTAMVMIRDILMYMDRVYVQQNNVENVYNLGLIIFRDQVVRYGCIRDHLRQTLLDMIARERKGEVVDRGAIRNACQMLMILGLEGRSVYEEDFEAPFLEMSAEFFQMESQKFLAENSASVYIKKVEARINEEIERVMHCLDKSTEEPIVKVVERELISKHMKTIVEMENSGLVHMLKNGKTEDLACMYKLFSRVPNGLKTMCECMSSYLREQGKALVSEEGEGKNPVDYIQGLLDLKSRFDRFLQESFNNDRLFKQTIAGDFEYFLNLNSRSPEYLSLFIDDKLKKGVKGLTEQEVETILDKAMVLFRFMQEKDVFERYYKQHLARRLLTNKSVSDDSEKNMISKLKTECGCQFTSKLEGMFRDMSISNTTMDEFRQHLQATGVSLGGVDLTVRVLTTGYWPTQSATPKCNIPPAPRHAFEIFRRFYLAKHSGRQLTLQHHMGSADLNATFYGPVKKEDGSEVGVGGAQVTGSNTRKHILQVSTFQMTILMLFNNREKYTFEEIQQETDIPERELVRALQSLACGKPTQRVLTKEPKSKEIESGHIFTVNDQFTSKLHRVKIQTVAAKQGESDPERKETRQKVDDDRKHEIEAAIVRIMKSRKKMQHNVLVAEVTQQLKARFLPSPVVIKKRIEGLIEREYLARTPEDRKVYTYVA

One experiment addresses T1, GST-ANXA7 (UniProt Q6IRJ7).
T1 sequence: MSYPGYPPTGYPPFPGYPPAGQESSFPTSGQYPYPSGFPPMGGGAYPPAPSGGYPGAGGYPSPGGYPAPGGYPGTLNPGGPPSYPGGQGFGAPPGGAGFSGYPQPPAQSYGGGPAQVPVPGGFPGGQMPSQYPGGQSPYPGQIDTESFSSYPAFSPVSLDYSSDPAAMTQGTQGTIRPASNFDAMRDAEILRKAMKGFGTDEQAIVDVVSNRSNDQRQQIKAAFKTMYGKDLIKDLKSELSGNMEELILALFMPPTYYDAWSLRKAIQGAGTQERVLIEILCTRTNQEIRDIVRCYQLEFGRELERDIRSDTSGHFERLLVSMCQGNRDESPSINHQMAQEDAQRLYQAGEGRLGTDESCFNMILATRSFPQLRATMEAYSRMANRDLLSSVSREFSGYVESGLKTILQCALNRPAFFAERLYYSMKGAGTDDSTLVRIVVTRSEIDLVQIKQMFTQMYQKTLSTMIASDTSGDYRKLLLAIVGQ
The experiment in a line: affinity purification with mass spectrometry; purified GST fusion (GST as control) added to P14 rat cortical lysate in RIPA buffer, 4 °C, captured on glutathione resin, NP40 wash buffer; LC-MS/MS, hits at log2FC >=1.2 and P <=0.05; only the target purified.

Another experiment addresses T2, GST-TIA1 (UniProt P31483).
T2 sequence: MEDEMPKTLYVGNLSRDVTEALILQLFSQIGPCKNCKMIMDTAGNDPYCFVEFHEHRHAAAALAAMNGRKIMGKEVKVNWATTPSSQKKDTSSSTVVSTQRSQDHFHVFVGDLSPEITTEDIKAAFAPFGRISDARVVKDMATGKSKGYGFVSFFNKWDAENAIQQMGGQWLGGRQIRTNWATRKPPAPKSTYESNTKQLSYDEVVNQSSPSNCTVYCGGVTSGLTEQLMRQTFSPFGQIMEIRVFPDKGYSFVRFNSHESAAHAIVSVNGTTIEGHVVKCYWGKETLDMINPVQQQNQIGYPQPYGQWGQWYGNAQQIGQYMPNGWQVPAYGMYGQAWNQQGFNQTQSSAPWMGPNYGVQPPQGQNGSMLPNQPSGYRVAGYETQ
The description is as above.

No constants are given. Whether binding was seen depends on the method and setting. In cells and extracts the contact can be indirect. A yes stands for co-enrichment or nearness to the bait. Other partners may have been found. For some assays here: No binding means not detected with the bait. Where a sequence is shown, tags or fusion partners need not be part of it.

On to “T-cell intracellular antigen 1 (TIA1), endogenous”, for which the binding entry in the experiment with GST-ANXA7 is on record as “binds”.
As for “CUL3, endogenous (from UniProt B5DF89 1-768)”, the binding result with GST-TIA1 was “binds”.
For the molecule “cytoplasmic dynein intermediate chain 1B (DIC1B), endogenous”, the binding result with GST-ANXA7 is given as “binds”; in the experiment with GST-TIA1 it was “no binding”.

B1: Annexin A7 (ANXA7), endogenous (protein, UniProt Q6IRJ7 1-485)
chain: T1 sequence
In the case of B1, the binding entry in the experiment with GST-TIA1 is given as “binds”.
